These results are taken from paper PMC7819943, “Rice protein-binding microarrays: a tool to detect cis-acting elements near promoter regions in rice”.

Amino acid sequences for entries named in this document (tags omitted).
UniProt Q0JBA9, entry or part of it: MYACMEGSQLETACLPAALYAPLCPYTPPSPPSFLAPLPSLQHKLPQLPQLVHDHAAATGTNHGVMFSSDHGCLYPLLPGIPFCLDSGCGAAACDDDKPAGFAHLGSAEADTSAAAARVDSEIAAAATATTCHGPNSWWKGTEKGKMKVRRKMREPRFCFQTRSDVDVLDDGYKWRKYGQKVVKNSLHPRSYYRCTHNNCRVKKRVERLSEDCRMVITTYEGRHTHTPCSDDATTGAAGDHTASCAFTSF

The list shows a part of the results.

The assay has as its target OsWRKY34 (Oryza sativa, UniProt Q0JBA9 1-250). Briefly: protein-binding microarray (RPBM); PBS, 2% BSA, 51.3 ng/ul salmon testes DNA, 50 uM zinc acetate, 200 nM TF, 25 C, 1 h; high values mean tight binding. Conditions: protein: recombinant; tags: N-terminal polyhistidine and DsRed monomer fusion (pET32a); label: CyDye5-dUTP incorporated in the synthesized complementary strand; 3' TTTTT single-stranded linker to array surface; dsDNA, one strand shown. The method in brief:
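The binding signal is fluorescence intensity per array feature (arbitrary units). Readings came from an Axon 4000B scanner after a washed, 2% BSA-blocked, double-stranded custom Agilent array had been incubated for 1 h at 25 °C with 200 nM protein and 50 µM zinc acetate. The protein was a Ni–NTA-purified transcription factor fused N-terminally to polyhistidine and DsRed, expressed in E. coli BL21-CodonPlus.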
Turning to “ATGGGCTGAAATTTCAGAAGGCATCCATCCCCATGATAATCGGAGTCACCTAGTGCAG”, the binding signal is 8330 fluorescence intensity (a.u.).

As to “ACTTGTATAACTTGAACTGCACTTCTTTCATATTCCTTCGCGGAGTCACCTAGTGCAG”, the binding signal was 12100 fluorescence intensity (a.u.).

As for “TAGCTACTCTTTTTTTTTTTGGTGACGTGCCCCATTCACTCGGAGTCACCTAGTGCAG”, the binding signal was 10900 fluorescence intensity (a.u.).

Regarding “TCCCAATTTTTTTCTCACATGCACTTTGTCACCTGTCAGACGGAGTCACCTAGTGCAG”, the binding signal was 9430 fluorescence intensity (a.u.).

Take “ACCAATCACACATTTCCTCCGATTATTCTCACCTATTTTTCGGAGTCACCTAGTGCAG”: the binding signal was 11300 fluorescence intensity (a.u.).

As for “CTTCTCAAACTATCAAAGGAGTCGATTTGCACCTGTTTTACGGAGTCACCTAGTGCAG”, the binding signal was 8110 fluorescence intensity (a.u.).

On to “GACTCCTCGTGCTTGTGCTAGGTTAGCTGCTCTCCTCTTCCGGAGTCACCTAGTGCAG”, for which the binding signal was 9010 fluorescence intensity (a.u.).

“ATCGAACTCCTAACTGCAGCTCATGATTTCTAATATATATCGGAGTCACCTAGTGCAG”: the binding signal was 8880 fluorescence intensity (a.u.).

Regarding “AACCCAAACTGCTCTTCCGCCCTCCTCACCCCGATTCTTTCGGAGTCACCTAGTGCAG”, the binding signal is 8090 fluorescence intensity (a.u.).

With “ACTGGAGGGGAACGAGAGAGGTGGCTGGACTGTATTTTCCCGGAGTCACCTAGTGCAG”, the binding signal is 9890 fluorescence intensity (a.u.).

“CATCCAAGTTAGGTATATCCCTCTTGTTGTGTATCTGCATCGGAGTCACCTAGTGCAG”: the binding signal was 11300 fluorescence intensity (a.u.).

As to “CTCGCCGTCGACTCCTCCTCCTCCTCCTCCTCTCACCATGCGGAGTCACCTAGTGCAG”, the binding signal was 9380 fluorescence intensity (a.u.).

Consider “CCCTTTACTTGATTTTCTGCTGGTTGGTTTATCTTTTATTCGGAGTCACCTAGTGCAG”, for which the binding signal is 19600 fluorescence intensity (a.u.).

With “TACTGCTATACACATGTTCTGTATTCTTACTTGTAACAGCCGGAGTCACCTAGTGCAG”, the binding signal was 8540 fluorescence intensity (a.u.).

For the sequence “CTTATTGTTCATCATCCTCCTCCTCATAGCTGACCAAATCCGGAGTCACCTAGTGCAG”, the binding signal is 9200 fluorescence intensity (a.u.).

On to “TTAACTATAACCACTTTCGCATTCTCTATCGTTTTGACCACGGAGTCACCTAGTGCAG”, for which the binding signal is 8450 fluorescence intensity (a.u.).

For the sequence “TGGTGGGTGCATTGTTGTTCACATTCCGGATCCCTGCATCCGGAGTCACCTAGTGCAG”, the binding signal was 9220 fluorescence intensity (a.u.).

In the case of “CGCCACCACCTACATTAAAGCTCTACCATTTACTAACGAGCGGAGTCACCTAGTGCAG”, the binding signal was 8350 fluorescence intensity (a.u.).

Take “GCTCTTTGACATCAGTTTTTCTTACTTCTATGTGATTTACCGGAGTCACCTAGTGCAG”: the binding signal is 8540 fluorescence intensity (a.u.).

Take “CTCTCTCTCTCTCTTTATTTTTTTTTAATACGCAAGAAGCCGGAGTCACCTAGTGCAG”: the binding signal was 8230 fluorescence intensity (a.u.).

As to “TTGACACCGTTAACTTTTTAGCATATGTTTGACCGTTCATCGGAGTCACCTAGTGCAG”, the binding signal was 9610 fluorescence intensity (a.u.).

For “CTCTTAATTTAGGGGTGGCTCATCATCTCTCTCCTCACTTCGGAGTCACCTAGTGCAG”, the binding signal is 9920 fluorescence intensity (a.u.).

Turning to “CAGCGGGCCCAGCAAGTCAGCCTCACATCTTCTTCTTCATCGGAGTCACCTAGTGCAG”, the binding signal is 8340 fluorescence intensity (a.u.).

On to “CCAAATTTCATCGGCGCATTGGGGTGGAGTTTGATCTCTTCGGAGTCACCTAGTGCAG”, for which the binding signal is 8750 fluorescence intensity (a.u.).

Turning to “TCGCTCGCCGCCGCGTCGCGTCGCGCCGCCACCTCACGCCCGGAGTCACCTAGTGCAG”, the binding signal was 9040 fluorescence intensity (a.u.).

Consider “GATCGCCCCGGGCCGGCCCTGACCGCTCGATCGCCCGCCGCGGAGTCACCTAGTGCAG”, for which the binding signal is 8130 fluorescence intensity (a.u.).

“TTCCGTCCGATATCGGTATATTCCCGTTCCGACTGTTCCGCGGAGTCACCTAGTGCAG”: the binding signal was 10600 fluorescence intensity (a.u.).

On to “CCTTGTTTAGTTGGCAAAAAATTTTGAGCTGACATGTCACCGGAGTCACCTAGTGCAG”, for which the binding signal is 8230 fluorescence intensity (a.u.).

As to “GGGTGGTAAAGCATGTTTTTTGAGGGGAGGGTGGTAAAGCCGGAGTCACCTAGTGCAG”, the binding signal was 16000 fluorescence intensity (a.u.).

Regarding “ATGTCTCCAAGAGCCGAGCAGGTGGGCCCCTAACCATCACCGGAGTCACCTAGTGCAG”, the binding signal was 8570 fluorescence intensity (a.u.).

In the case of “ACGGTCGTTCATTCAGTGGCACAACAGCAAATTACCTTTTCGGAGTCACCTAGTGCAG”, the binding signal is 8920 fluorescence intensity (a.u.).

For the sequence “GCAGCGCCTGATCGATTACTACTTCGCCATGGTGCCAACTCGGAGTCACCTAGTGCAG”, the binding signal is 8910 fluorescence intensity (a.u.).

Regarding “ATATATATATATATATATATATATATATATATGCAGCATGCGGAGTCACCTAGTGCAG”, the binding signal is 13100 fluorescence intensity (a.u.).

As to “GACAATTATCGCATCCCACGAAATTTCAACTATTACTATTCGGAGTCACCTAGTGCAG”, the binding signal was 8040 fluorescence intensity (a.u.).

For “GTTTCATTTGTAGCTGTTGATTTGACTGTAAACCCCTTTTCGGAGTCACCTAGTGCAG”, the binding signal is 8930 fluorescence intensity (a.u.).

Consider “AATCTCCTCTGCTCGCCGCGCGCCACTTCCTCACTCCTCGCGGAGTCACCTAGTGCAG”, for which the binding signal is 8560 fluorescence intensity (a.u.).

As for “CCTCCTACTTTCTTGTTACATCTTCGTGAGCATCCTTGTACGGAGTCACCTAGTGCAG”, the binding signal is 10000 fluorescence intensity (a.u.).

As to “AGGTGTGGTATATAGGTACCAATTGATGAGTGTTGCTGCTCGGAGTCACCTAGTGCAG”, the binding signal is 11100 fluorescence intensity (a.u.).

Turning to “GATGGTAGGATAAACAAATGGGTAATGGAGGATACGTGCTCGGAGTCACCTAGTGCAG”, the binding signal was 8050 fluorescence intensity (a.u.).

Take “CCCAGAGCGCTTCATGCTTTGCCTTTCATCTTCATTCATTCGGAGTCACCTAGTGCAG”: the binding signal is 11500 fluorescence intensity (a.u.).

Consider “ATTAATTTCGCTTGCTAACACGAGTTTAATCTGCCAATTTCGGAGTCACCTAGTGCAG”, for which the binding signal was 10000 fluorescence intensity (a.u.).

As to “ATTGTATTTCTATATGGACTCTATACTCTACTTCTAATATCGGAGTCACCTAGTGCAG”, the binding signal was 9270 fluorescence intensity (a.u.).
